Test results reported in patent US20260285888A1, “HETEROCYCLIC COMPOUND AND USE THEREOF” (OTSUKA PHARMACEUTICAL CO., LTD., priority 2023, published 2026).
For at least one compound, name, drawing or mass did not settle the structure.

Experiment: Study for confirmation of conversion to brexpiprazole in a buffer (stability of the evaluation compounds)
Type: physicochemical
Conditions: average of duplicate; for Concentration of brexpiprazole formed: 60-minute reaction sample; for Concentration of evaluation compound decreased: decrease in 60-minute vs 0-minute reaction sample
Experimental: The conversion from the evaluation compounds to brexpiprazole in a buffer (i.e., the stability of the evaluation compounds) was evaluated.
The Example 1 compound was dissolved in acetonitrile/water (1:1, v/v) to 10 mmol/L and further diluted with acetonitrile/water (1:1, v/v) to 100 μmol/L for use.
The other Example compounds and the Reference Example 5 compound to Reference Example 7 compound were each dissolved in DMSO to 10 mmol/L and further diluted with acetonitrile to 100 μmol/L for use, except for the following compounds.
The compounds of Examples 52, 95, 96, 117, and 130 (EX 52, EX 95, EX 96, EX 117, and EX 130) were dissolved in acetonitrile/water (8:2, v/v) to 10 mmol/L and further diluted with acetonitrile to 100 μmol/L for use.
The compound of Example 97 (EX 97) was dissolved in acetonitrile/water (8:2, v/v) to 10 mmol/L and further diluted with acetonitrile/water (8:2, v/v) to 100 μmol/L for use.
The compounds of Examples 15 and 116 (EX 15 and EX 116) were dissolved in DMSO to 1 mmol/L and further diluted with acetonitrile to 100 μmol/L for use.
The reaction was conducted by preparing each reaction solution such that the final concentration of each component was as follows. The test was conducted in duplicate.
For the compounds of Examples 1 to 8, 10 to 19, 26 to 27, 37, 50, 87 to 89, 91, 116, 121, 123, 150, and 151 (EX 1 to EX 8, EX 10 to EX 19, EX 26 to EX 27, EX 37, EX 50, EX 87 to EX 89, EX 91, EX 116, EX 121, EX 123, EX 150, and EX 151), and the compounds of Reference Examples 5 to 7 (REX 5 to REX 7), the reaction solution without the evaluation compound (198 μl) was pre-incubated at 37° C. for 3 minutes, and then each of the evaluation compound solutions (2 μl) was added and stirred; thereafter, the reaction was started at 37° C. At 0 minutes or 60 minutes after the start of the reaction, the reaction was stopped by adding and stirring a reaction stop solution (1000 μl) composed of acetonitrile/isopropanol (4:1, v/v) containing internal standard substances. However, the 0-minute reaction sample (198 μl) was prepared by adding the evaluation compound (2 μl) after adding the reaction stop solution (1000 μl). The samples after stopping the reaction were used as the measurement samples. Calibration curve samples with the same composition were prepared (final concentrations of the evaluation compounds and brexpiprazole: 0.01, 0.1, and 1 μmol/L, with the proviso that for the evaluation compounds only, the 0-minute reaction samples were also used as calibration curve samples for 1 μmol/L).
For the compounds of Examples 24 to 25, 28 to 29, 32 to 36, 40 to 49, 51 to 60, 62 to 64, 66 to 77, 80 to 86, 90, 92 to 111, 113, 115, 117 to 120, 122, 124 to 130, 132 to 147, and 152 to 160 (EX 24 to EX 25, EX 28 to EX 29, EX 32 to EX 36, EX 40 to EX 49, EX 51 to EX 60, EX 62 to EX 64, EX 66 to EX 77, EX 80 to EX 86, EX 90, EX 92 to EX 111, EX 113, EX 115, EX 117 to EX 120, EX 122, EX 124 to EX 130, EX 132 to EX 147, and EX 152 to EX 160), the reaction solution without the evaluation compound (148.5 μl) was pre-incubated at 37° C. for 3 minutes, and then each of the evaluation compound solutions (1.5 μl) was added and stirred; thereafter, the reaction was started at 37° C. At 0 minutes or 60 minutes after the start of the reaction, the reaction was stopped by adding and stirring a reaction stop solution (600 μl) composed of acetonitrile/isopropanol (4:1, v/v) containing internal standard substances. However, the 0-minute reaction sample (148.5 μl) was prepared by adding the evaluation compound (1.5 μl) after adding the reaction stop solution (600 μl). The samples after stopping the reaction were used as the measurement samples. Calibration curve samples with the same composition were prepared (final concentrations of the evaluation compounds and brexpiprazole: 0.01, 0.1, and 1 μmol/L, with the proviso that for the evaluation compounds only, the 0-minute reaction samples were also used as calibration curve samples for 1 μmol/L). […]

Structure (SMILES) | Concentration of brexpiprazole formed | Concentration of evaluation compound decreased
CCOC(=O)COP(=O)([O-])OC[N+]1(CCCCOc2ccc3ccc(=O)[nH]c3c2)CCN(c2cccc3sccc23)CC1 [EX 8, (4-(benzo[b]thiophen-4-yl)-1-(4-((2-oxo-1,2-dihydroquinolin-7-yl)oxy)butyl)piperazin-1-ium-1-yl)methyl (2-ethoxy-2-oxoethyl)phosphate] | 10 nM | 70 nM
CC(C)OCCOP(=O)([O-])OC[N+]1(CCCCOc2ccc3ccc(=O)[nH]c3c2)CCN(c2cccc3sccc23)CC1 [EX 13, (4-(benzo[b]thiophen-4-yl)-1-(4-((2-oxo-1,2-dihydroquinolin-7-yl)oxy)butyl)piperazin-1-ium-1-yl)methyl (2-isopropoxyethyl)phosphate] | 0 nM | 30 nM
O=c1ccc2ccc(OCCCC[N+]3(COP(=O)([O-])OCCN4CCOCC4)CCN(c4cccc5sccc45)CC3)cc2[nH]1 [EX 14, (4-(benzo[b]thiophen-4-yl)-1-(4-((2-oxo-1,2-dihydroquinolin-7-yl)oxy)butyl)piperazin-1-ium-1-yl)methyl (2-morpholinoethyl)phosphate] | 0 nM | 80 nM
CC(=O)OCCCOP(=O)([O-])OC[N+]1(CCCCOc2ccc3ccc(=O)[nH]c3c2)CCN(c2cccc3sccc23)CC1 [EX 15, 3-acetoxypropyl ((4-(benzo[b]thiophen-4-yl)-1-(4-((2-oxo-1,2-dihydroquinolin-7-yl)oxy)butyl)piperazin-1-ium-1-yl)methyl)phosphate] | 0 nM | 0 nM
CCCCCC(=O)OCOP(=O)([O-])OC[N+]1(CCCCOc2ccc3ccc(=O)[nH]c3c2)CCN(c2cccc3sccc23)CC1 [EX 16, (4-(benzo[b]thiophen-4-yl)-1-(4-((2-oxo-1,2-dihydroquinolin-7-yl)oxy)butyl)piperazin-1-ium-1-yl)methyl ((hexanoyloxy)methyl)phosphate] | 0 nM | 10 nM
CCCCCCCCCC(=O)OCOP(=O)([O-])OC[N+]1(CCCCOc2ccc3ccc(=O)[nH]c3c2)CCN(c2cccc3sccc23)CC1 [EX 17, (4-(benzo[b]thiophen-4-yl)-1-(4-((2-oxo-1,2-dihydroquinolin-7-yl)oxy)butyl)piperazin-1-ium-1-yl)methyl ((decanoyloxy)methyl)phosphate] | 0 nM | 70 nM
O=C(OCOP(=O)([O-])OC[N+]1(CCCCOc2ccc3ccc(=O)[nH]c3c2)CCN(c2cccc3sccc23)CC1)C1CCCCC1 [EX 18, (4-(benzo[b]thiophen-4-yl)-1-(4-((2-oxo-1,2-dihydroquinolin-7-yl)oxy)butyl)piperazin-1-ium-1-yl)methyl (((cyclohexanecarbonyl)oxy)methyl)phosphate] | 0 nM | -10 nM
O=C(OCOP(=O)([O-])OC[N+]1(CCCCOc2ccc3ccc(=O)[nH]c3c2)CCN(c2cccc3sccc23)CC1)OC1CCCCC1 [EX 19, (4-(benzo[b]thiophen-4-yl)-1-(4-((2-oxo-1,2-dihydroquinolin-7-yl)oxy)butyl)piperazin-1-ium-1-yl)methyl ((((cyclohexyloxy)carbonyl)oxy)methyl)phosphate] | 0 nM | -70 nM
